Data taken from patent publication US20230364194A1, “GLP-1R/GCGR Dual Target Agonist Polypeptide Derivative for Treatment of Hepatic Fibrosis Associated with Viral Hepatitis” (Shenzhen Turier Biotech. Co., Ltd., priority 2020, published 2023).
At least one structure is not confirmed: it was looked up by name or label, or the drawing left a doubt.

System: Hepatic stellate cell strain LX-2
Assay: In vitro effect on expression of LX-2 cell activation marker α-SMA (Western Blot, β-actin reference)
Assay type: cell-based
Details: LX-2 cells, 10.0 uM, 48 hours, negative control = 100%
Text: Hepatic stellate cell strain LX-2 (from China Center for Type Culture Collection, Shanghai) was selected to study and observe the effects of polypeptide compounds 1-25 on the expression level of LX-2 cell activation marker α-smooth muscle actin (α-SMA). The control group was given the same volume of Dulbecco’s modified Eagle medium (DMEM) (from Gibco, United States), and β-actin (from TransGen Biotech) as the endogenous reference, wherein, α-SMA is a symbolic feature that distinguishes […] from myofibroblasts.
Hepatic stellate cell LX-2 was laid on 35 mm cell culture plate, cultured with DMEM (high glucose)+10% FBS+1% double-antibody culture medium (Thermo Fisher), placed overnight when the cells grew to 70% convergence at 37° C. under the condition of 5% CO2 without serum, and treated with the above GLP-1R/GCGR dual target agonist polypeptide derivatives (namely, polypeptide compounds 1-25) (dissolved in PBS) for 48 hours from the next morning to extract cell protein, and then Western Blot was performed with β-actin as endogenous reference to analyze the expression levels of α-SMA and β-actin by gray-scale analysis using Image J 1.50i. PBS with the same volume as that in experimental group was added in negative control. […]

`CCCCCCCCCCCCCCCC(=O)N[C@@H](CCC(=O)NCCCC[C@H](NC(=O)[C@H](C)NC(=O)[C@H](C)NC(=O)[C@H](CCC(N)=O)NC(=O)CNC(=O)[C@H](CCC(=O)O)NC(=O)[C@H](CC(C)C)NC(=O)[C@H](Cc1ccc(O)cc1)NC(=O)[C@H](CO)NC(=O)[C@H](CO)NC(=O)[C@@H](NC(=O)[C@H](CC(=O)O)NC(=O)[C@H](CO)NC(=O)[C@@H](NC(=O)[C@H](Cc1ccccc1)NC(=O)[C@@H](NC(=O)CNC(=O)[C@H](CCC(=O)O)NC(=O)[C@H](C)NC(=O)[C@@H](N)Cc1cnc[nH]1)[C@@H](C)O)[C@@H](C)O)C(C)C)C(=O)N[C@@H](CCC(=O)O)C(=O)N[C@@H](Cc1ccccc1)C(=O)N[C@H](C(=O)N[C@@H](C)C(=O)N[C@@H](Cc1c[nH]c2ccccc12)C(=O)N[C@@H](CC(C)C)C(=O)N[C@H](C(=O)N[C@@H](CCCNC(=N)N)C(=O)NCC(=O)N[C@@H](CCCNC(=N)N)C(=O)NCC(=O)O)C(C)C)[C@@H](C)CC)C(=O)O` [Liraglutide, reference compound] was tested, and the “Relative expression of α-SMA (α-SMA/β-actin, %)” value was 73.68%.
